These are yes or no findings as the source states them, for the method shown. In cells and extracts the contact can be indirect. Here binding means that the protein was enriched with, or labelled near, the bait; the list need not be complete. Sequences can lack the tags named with a protein.
Biological target: T1, mouse TBX18 protein fused to a N-terminal triple FLAG tag followed by a biotinylation signal peptide (mouse) (UniProt Q9EPZ6)
T1 sequence (chain, biotinylated on the biotinylation signal peptide by co-expressed BirA): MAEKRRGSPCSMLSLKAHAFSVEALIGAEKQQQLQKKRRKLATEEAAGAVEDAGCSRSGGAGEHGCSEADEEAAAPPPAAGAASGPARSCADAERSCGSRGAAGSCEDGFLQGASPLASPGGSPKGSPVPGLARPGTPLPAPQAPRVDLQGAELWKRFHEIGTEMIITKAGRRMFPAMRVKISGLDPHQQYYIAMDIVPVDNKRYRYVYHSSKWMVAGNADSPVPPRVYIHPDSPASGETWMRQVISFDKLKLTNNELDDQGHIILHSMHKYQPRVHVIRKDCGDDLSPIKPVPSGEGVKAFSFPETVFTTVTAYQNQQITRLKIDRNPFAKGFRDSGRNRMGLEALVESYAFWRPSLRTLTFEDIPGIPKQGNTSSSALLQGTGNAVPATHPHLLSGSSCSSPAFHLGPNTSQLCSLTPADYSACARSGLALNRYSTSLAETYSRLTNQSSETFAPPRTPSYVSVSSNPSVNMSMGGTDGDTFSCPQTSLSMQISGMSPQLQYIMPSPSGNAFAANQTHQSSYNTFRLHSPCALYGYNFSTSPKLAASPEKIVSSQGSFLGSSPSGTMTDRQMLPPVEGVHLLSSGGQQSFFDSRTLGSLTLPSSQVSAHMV
Experiment: affinity purification with mass spectrometry; tandem affinity purification of 3xFLAG-BioTag-TBX18 from nuclear extracts of transfected 293 cells (anti-FLAG M2 on Protein A agarose, 3xFLAG peptide elution, then Strep-Tactin Superflow), SDS-PAGE, LC-MS; three independent experiments against a mock control without exogenous TBX18

B1: SBNO2 (protein, UniProt Q9Y2G9 1-1366)
chain: MLAVGPAMDRDYPQHEPPPAGSLLYSPPPLQSAMLHCPYWNTFSLPPYPAFSSDSRPFMSSASFLGSQPCPDTSYAPVATASSLPPKTCDFAQDSSYFEDFSNISIFSSSVDSLSDIVDTPDFLPADSLNQVSTIWDDNPAPSTHDKLFQLSRPFAGFEDFLPSHSTPLLVSYQEQSVQSQPEEEDEAEEEEAEELGHTETYADYVPSKSKIGKQHPDRVVETSTLSSVPPPDITYTLALPSDSGALSALQLEAITYACQQHEVLLPSGQRAGFLIGDGAGVGKGRTVAGVILENHLRGRKKALWFSVSNDLKYDAERDLRDIEATGIAVHALSKIKYGDTTTSEGVLFATYSALIGESQAGGQHRTRLRQILDWCGEAFEGVIVFDECHKAKNAGSTKMGKAVLDLQNKLPLARVVYASATGASEPRNMIYMSRLGIWGEGTPFRNFEEFLHAIEKRGVGAMEIVAMDMKVSGMYIARQLSFSGVTFRIEEIPLAPAFECVYNRAALLWAEALNVFQQAADWIGLESRKSLWGQFWSAHQRFFKYLCIAAKVRRLVELAREELARDKCVVIGLQSTGEARTREVLGENDGHLNCFVSAAEGVFLSLIQKHFPSTKRKRDRGAGSKRKRRPRGRGAKAPRLACETAGVIRISDDSSTESDPGLDSDFNSSPESLVDDDVVIVDAVGLPSDDRGPLCLLQRDPHGPGVLERVERLKQDLLDKVRRLGRELPVNTLDELIDQLGGPQRVAEMTGRKGRVVSRPDGTVAFESRAEQGLSIDHVNLREKQRFMSGEKLVAIISEASSSGVSLQADRRVQNQRRRVHMTLELPWSADRAIQQFGRTHRSNQVSAPEYVFLISELAGERRFASIVAKRLESLGALTHGDRRATESRDLSKYNFENKYGTRALHCVLTTILSQTENKVPVPQGYPGGVPTFFRDMKQGLLSVGIGGRESRNGCLDVEKDCSITKFLNRILGLEVHKQNALFQYFSDTFDHLIEMDKREGKYDMGILDLAPGIEEIYEESQQVFLAPGHPQDGQVVFYKISVDRGLKWEDAFAKSLALTGPYDGFYLSYKVRGNKPSCLLAEQNRGQFFTVYKPNIGRQSQLEALDSLRRKFHRVTAEEAKEPWESGYALSLTHCSHSAWNRHCRLAQEGKDCLQGLRLRHHYMLCGALLRVWGRIAAVMADVSSSSYLQIVRLKTKDRKKQVGIKIPEGCVRRVLQELRLMDADVKRRQAPALGCPAPPAPRPLALPCGPGEVLDLTYSPPAEAFPPPPHFSFPAPLSLDAGPGVVPLGTPDAQADPAALAHQGCDINFKEVLEDMLRSLHAGPPSEGALGEGAGAGGAAGGGPERQSVIQFSPPFPGAQAPL
For B1, the binding was “binds”.

Source: article PMC6071992
